PubChem BioAssay AID1259267 | Sanger Institute – 2017

Purpose: 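Essential and drug-synergistic knock-downs in GP5D bowel cancer cells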 (primary screen)
Cell system: human GP5D colorectal cancer cells
Knock-down reagent: siRNA pool against human genes
Conditions: anchor drugs at low dose: BYL719 1 µM, cetuximab 5 µg/ml, trametinib 10 nM, or DMSO vehicle
Measured: 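Viability against non-targeting pool, replicate mean: robust z-score for knock-down alone, fraction with DMSO, synergy with BYL719 1 µM, cetuximab 5 µg/ml, trametinib 10 nM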
Reading the numbers: robust z-score, knock-down alone and viability with DMSO: higher = more viable cells; synergy score with trametinib and synergy score with BYL719 and synergy score with cetuximab: higher = stronger synthetic lethal synergy with drug
Rule for the call: 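Active (essential alone) if knock-down without drug gives robust z-score under -3; drug synergy does not count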
Calls: active = essential alone; inactive = not essential
The deposit covers 794 reagents; this is a random part of them. 9 of them (1.1%) were called active. 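Viability capped at 1; calls reflect loss of viability from knock-down alone, not synergy with drugs.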 The record does not give: the amount of reagent, the time to read-out.

Gene | robust z-score, knock-down alone | viability with DMSO (fraction of control) | synergy score with trametinib | synergy score with BYL719 | synergy score with cetuximab | activity call
STYK1 | -1.14 | 0.584 | -0.225 | -0.414 | -0.367 | inactive
GUCY2D | -3.71 | 0.0409 | 0.00622 | -0.226 | 0.0157 | active
MAP2K4 | 0.817 | 1 | -0.197 | -0.361 | -0.142 | inactive
AMHR2 | 0.287 | 0.888 | -0.0807 | -0.219 | -0.238 | inactive
LMBR1 | 0.817 | 1 | 0.0726 | -0.307 | -0.142 | inactive
CERK | 0.817 | 1 | -0.197 | -0.182 | -0.142 | inactive
MAP3K10 | 0.817 | 1 | -0.197 | -0.281 | -0.142 | inactive
WNK3 | 0.817 | 1 | 0.0642 | -0.208 | -0.0163 | inactive
